# Screening data

Data taken from PubChem BioAssay AID504749, deposited by NCATS (2011).

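Malaria parasite (P. falciparum) lines kept in red blood cells; parasite DNA is measured by SYBR Green fluorescence after lysis, 72 h after compound addition. Each compound was titrated across a series from about 0.000037 to 29 µM. The number is the fitted AC50, the concentration giving a half-maximal change in signal; a lower value means higher potency, whether the curve shows a decrease or an increase. Calls follow the curve class and fit quality: every row here is inconclusive, covering signal-raising curves and weak, poorly fitted, partial or highest-dose-only inhibition curves.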

Values are in nM. Every entry below has the call inconclusive. Only part of the assay is shown, chiefly results filed as inconclusive. Potencies fitted to partial, single-point or poorly fitting curves are rough.

Result for C[C@@]12CCC(=O)C=C1C=C[C@H]1[C@H]3CC[C@](O)(CCC(=O)O)[C@]3(C)CC[C@@H]12 [TAB113] was potency 10000 nM (inhibitor, single point). C[C@@]12CCC(=O)C=C1C=C[C@H]1[C@H]3CC[C@](O)(CCC(=O)O)[C@]3(C)CC[C@@H]12 [P93_24] gave potency 10000 nM (inhibitor, single point). Result for C[C@@]12CCC(=O)C=C1C=C[C@H]1[C@H]3CC[C@](O)(CCC(=O)O)[C@]3(C)CC[C@@H]12 [HB3] was potency 7080 nM (inhibitor, single point). Result for C[C@@]12CCC(=O)C=C1C=C[C@H]1[C@H]3CC[C@](O)(CCC(=O)O)[C@]3(C)CC[C@@H]12 [TAB165] was potency 10000 nM (inhibitor, single point). For C[C@@]12CCC(=O)C=C1C=C[C@H]1[C@H]3CC[C@](O)(CCC(=O)O)[C@]3(C)CC[C@@H]12 [DIV17] the result was potency 8087 nM (inhibitor, single point).

With C[C@@]12CCC(=O)C=C1C=C[C@H]1[C@H]3CC[C@](O)(CCC(=O)O)[C@]3(C)CC[C@@H]12 [7G8] the assay gave potency 7080 nM (inhibitor, single point). C[C@@]12CCC(=O)C=C1C=C[C@H]1[C@H]3CC[C@](O)(CCC(=O)O)[C@]3(C)CC[C@@H]12 [PC26] read potency 8087 nM (inhibitor, single point). For C[C@@]12CCC(=O)C=C1C=C[C@H]1[C@H]3CC[C@](O)(CCC(=O)O)[C@]3(C)CC[C@@H]12 [GB4] the result was potency 5103 nM (inhibitor, single point). For CCCC(=O)O[C@]1(C(=O)COC(C)=O)CC[C@H]2C3C[C@H](F)C4=CC(=O)C=CC4(C)[C@@]3(F)[C@@H](O)CC21C (stereo not given in full) [PC26] the result was potency 13459 nM (inhibitor, single point). For CCCC(=O)O[C@]1(C(=O)COC(C)=O)CC[C@H]2C3C[C@H](F)C4=CC(=O)C=CC4(C)[C@@]3(F)[C@@H](O)CC21C (stereo not given in full) [PAD] the result was potency 17782 nM (inhibitor, single point).

Result for CCCC(=O)O[C@]1(C(=O)COC(C)=O)CC[C@H]2C3C[C@H](F)C4=CC(=O)C=CC4(C)[C@@]3(F)[C@@H](O)CC21C (stereo not given in full) [P93_24] was potency 17782 nM (inhibitor, single point). CCCC(=O)O[C@]1(C(=O)COC(C)=O)CC[C@H]2C3C[C@H](F)C4=CC(=O)C=CC4(C)[C@@]3(F)[C@@H](O)CC21C (stereo not given in full) [GB4] gave potency 9528 nM (inhibitor, partial curve, poor fit). For CCCC(=O)O[C@]1(C(=O)COC(C)=O)CC[C@H]2C3C[C@H](F)C4=CC(=O)C=CC4(C)[C@@]3(F)[C@@H](O)CC21C (stereo not given in full) [W2] the result was potency 16944 nM (inhibitor, single point). Result for CCCC(=O)O[C@]1(C(=O)COC(C)=O)CC[C@H]2C3C[C@H](F)C4=CC(=O)C=CC4(C)[C@@]3(F)[C@@H](O)CC21C (stereo not given in full) [DIV14] was potency 19011 nM (inhibitor, single point). CCCC(=O)O[C@]1(C(=O)COC(C)=O)CC[C@H]2C3C[C@H](F)C4=CC(=O)C=CC4(C)[C@@]3(F)[C@@H](O)CC21C (stereo not given in full) [DIV17] gave potency 10690 nM (inhibitor, partial curve).

Result for CCCC(=O)O[C@]1(C(=O)COC(C)=O)CC[C@H]2C3C[C@H](F)C4=CC(=O)C=CC4(C)[C@@]3(F)[C@@H](O)CC21C (stereo not given in full) [TAB165] was potency 10000 nM (inhibitor, single point). For CCCC(=O)O[C@]1(C(=O)COC(C)=O)CC[C@H]2C3C[C@H](F)C4=CC(=O)C=CC4(C)[C@@]3(F)[C@@H](O)CC21C (stereo not given in full) [ICS] the result was potency 17782 nM (inhibitor, single point). Result for CCOc1ccc(Cc2nccc3cc(OCC)c(OCC)cc23)cc1OCC [GB4] was potency 6424 nM (inhibitor, partial curve). With CCOc1ccc(Cc2nccc3cc(OCC)c(OCC)cc23)cc1OCC [CP256] the assay gave potency 7080 nM (inhibitor, single point). Result for CCOc1ccc(Cc2nccc3cc(OCC)c(OCC)cc23)cc1OCC [DIV30] was potency 7208 nM (inhibitor, partial curve, poor fit).

CCOc1ccc(Cc2nccc3cc(OCC)c(OCC)cc23)cc1OCC [parasite line A] read potency 3162 nM (inhibitor, single point).